Laboratory results as given in paper PMC4821352.
Results are given in words; binding and its absence hold for the method and conditions named. In cells and extracts the contact can be indirect. Some results given as binding are weak or reduced against the parent protein; the word gives no strength.

By UniProt entry, the sequences of proteins in these tests, tags left out.
UniProt P41208: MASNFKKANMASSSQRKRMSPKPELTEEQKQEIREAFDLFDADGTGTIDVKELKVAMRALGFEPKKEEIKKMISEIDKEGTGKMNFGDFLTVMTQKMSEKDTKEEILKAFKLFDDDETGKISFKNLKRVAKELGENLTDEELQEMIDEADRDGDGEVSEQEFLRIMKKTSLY
UniProt Q63472: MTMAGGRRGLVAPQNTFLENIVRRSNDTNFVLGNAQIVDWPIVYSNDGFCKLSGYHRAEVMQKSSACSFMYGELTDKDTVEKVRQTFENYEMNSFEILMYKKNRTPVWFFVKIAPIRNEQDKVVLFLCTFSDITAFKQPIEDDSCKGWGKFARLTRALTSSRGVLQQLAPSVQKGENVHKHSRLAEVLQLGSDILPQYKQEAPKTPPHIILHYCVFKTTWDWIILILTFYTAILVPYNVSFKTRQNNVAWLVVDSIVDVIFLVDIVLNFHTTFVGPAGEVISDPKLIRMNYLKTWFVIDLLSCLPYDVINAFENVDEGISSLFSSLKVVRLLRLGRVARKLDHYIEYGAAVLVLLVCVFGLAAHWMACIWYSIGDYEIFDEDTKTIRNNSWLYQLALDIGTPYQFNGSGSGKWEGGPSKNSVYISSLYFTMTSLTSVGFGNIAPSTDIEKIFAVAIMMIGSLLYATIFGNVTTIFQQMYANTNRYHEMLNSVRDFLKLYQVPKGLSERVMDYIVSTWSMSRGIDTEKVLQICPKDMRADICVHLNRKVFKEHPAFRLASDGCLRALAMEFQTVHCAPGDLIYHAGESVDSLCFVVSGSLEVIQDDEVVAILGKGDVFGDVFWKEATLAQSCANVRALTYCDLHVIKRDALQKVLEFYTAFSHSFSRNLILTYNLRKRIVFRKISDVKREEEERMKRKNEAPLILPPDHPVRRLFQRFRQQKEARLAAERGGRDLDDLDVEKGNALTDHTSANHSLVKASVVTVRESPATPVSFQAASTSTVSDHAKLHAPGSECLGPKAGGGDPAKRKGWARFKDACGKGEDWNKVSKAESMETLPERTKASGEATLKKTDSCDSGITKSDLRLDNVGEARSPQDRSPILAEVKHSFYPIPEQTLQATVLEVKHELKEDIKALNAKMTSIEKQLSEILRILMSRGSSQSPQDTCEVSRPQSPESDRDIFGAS

Biological target: GFP-tagged centrin 2 (human) (UniProt P41208)
Assay: co-IP; transfected HEK293T cells solubilized in IP buffer (20 mM Tris-HCl pH 7.4, 150 mM NaCl, 1% Triton X-100, 0.5% Na-deoxycholate, 0.1% SDS, 1 mM EDTA); 16 h at 4 °C with antibody-coated protein A/G sepharose beads; immunoblot

binding: binds
Substance: rat Eag1 (rEag1) K+ channel, expressed from pcDNA3 (from UniProt Q63472 1-962)
